US7462347B2, “Fluorescent membrane intercalating probes” (priority 2000, dated 2008)
Values joined by “and” are separate entries in the source; they are usually repeats but may differ in a detail not shown here. Equal values may be shown once.

Legend:
[1] = test system: YAC-1 murine lymphoma cells; test: S/N, retention and spectral crossover of labeled cells by flow cytometry; assay type: cell-based; conditions: for S/N at T = 0 / % Retention at T = 22 hours: cells labeled at MTC; for S/N at T = 0: flow cytometry; for % Retention at T = 22 hours: growth-corrected, co-culture with unlabeled cells; for MFI, FL5 / Percent spectral overlap, FL5: FACS Vantage SE only, 647 excitation
YAC-1 cells [2] = test: Signal:noise estimation for in vitro imaging of labeled tumor cells; assay type: cell-based; conditions: cells labeled at MTC, fluorescence microscope 100×, compared with PKH26
YAC-1 cells [3] = test: In vivo tracking and imaging of labeled tumor cells through the skin; parameters: species or system nude mice; conditions: 10^6 labeled YAC-1 cells injected subcutaneously, CCD camera
[4] = FACS Calibur, 488 nm excitation 661/16 BP
[5] = FACS Calibur, 488 nm excitation, 585/42 BP
[6] = FACS Vantage SE, 488 nm excitation, 610/20 BP
[7] = FACS Vantage SE, 647 nm excitation, 740 LP

SMILES	MFI, FL3 [1, 4]	Percent spectral overlap, FL3 [1, 4]	MFI, FL2 [1, 5]	Percent spectral overlap, FL2 [1, 5]	MFI, FL4 (primary channel) ([1]; FACS Calibur, 635 nm excitation, 661/16 BP)	S/N at T = 0 [1]	% Retention at T = 22 hours [1]	MFI, FL5 ([1]; 740 LP)	Percent spectral overlap, FL5 ([1]; 740 LP)	Percent spectral overlap, FL3 [1, 6]	MFI, FL4 (primary channel) [1, 7]	normalized S/N (standardized 50 msec acquisition time) (YAC-1 cells [2])	fluorescence of labeled cells detected through the skin (YAC-1 cells [3])	MFI, FL3 [1, 6]
CCCCCCCCCCCCCCCCCCCCCC[N+]1=C(/C=C/C=C/C=C2/N(CCCCCCCCCCCCCC)c3ccccc3C2(C)C)C(C)(C)c2ccccc21.[I-] [Compound 8]	MFI = (−389)	1.6%	(MFI = 31)	0.001%	(MFI = 24430)	3948	98%							
CCCCCCCCCCCCCCCCCCCCCC[N+]1=C(/C=C/C=C/C=C2/N(CCCCCCCCCCCCCC)c3ccc4ccccc4c3C2(C)C)C(C)(C)c2c1ccc1ccccc21.[I-] [Compound 13]						1152	90%	(MFI = 615)	7.6%	0	(MFI = 8087)	increased	can be detected through the skin of nude mice	
CCCCCCCCCCCCCCCCCCCCCC[N+]1=C(/C=C/C=C/C=C/C=C2/N(CCCCCCCCCCCCCC)c3ccc4ccccc4c3C2(C)C)C(C)(C)c2c1ccc1ccccc21.[I-] [Compound 15]												increased	can be detected through the skin of nude mice	
CCCCCCCCCCCCCCCCCCCCCC[N+]1=C(/C=C/C=C/C=C2/N(CCCCCCCCCCCCCC)c3ccc4ccccc4c3C2(C)C)C(C)(C)c2ccccc21 [Compound 25]						1031	91%	(MFI = 4484)	62.4%	0	(MFI = 7180)			(MFI = 0)
CCCCCCCCCCCCCCCCCCCCCC[N+]1=C(/C=C/C=C2/N(CCCCCCCCCCCCCC)c3ccccc3C2(C)C)C(C)(C)c2ccccc21.[I-] [PKH26, reference compound]						265 and 357	106%							
